PubChem BioAssay AID1259254, NCATS | 2017

- Purpose: 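Genome-wide screen for genes that prevent DNA re-replication in cancer cells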 (primary screen)
- System: human HCT116 colorectal cancer cells
- Reagents: single siRNA against human genes
- Time to read-out: 3 days
- Measurement: 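Nuclei stained with Hoechst and imaged; cell-cycle phase assigned by DNA content; G2 share scaled per plate, non-targeting siRNA 0%, GMNN siRNA 100%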
- Scale: G2 robust z-score and G2 cells, % of GMNN control: higher = more G2 cells, more excess DNA replication
- Active means: 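Active siRNAs have a G2 robust z of 5 or more median absolute deviations over the median, which in these data means about 38% or higher of GMNN control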
Shown is a random part of about 59,000 deposited reagents. Of all reagents, about 1,550 (2.6%) were called active. 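G2 share is only a proxy for re-replication; each gene was hit by three separate siRNAs, and active genes were retested.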 Reagents against one gene are numbered here. Further read-outs or replicates are left out here. The record does not give: the amount of reagent.

gene	siRNA no.	G2 robust z-score	G2 cells, % of GMNN control	Call
AOAH	1	4.37	33.7	inactive
AOAH	2	0.477	6.32	inactive
AOAH	3	-1.03	-4.27	inactive
EIF5A	1	-0.0279	2.77	inactive
EIF5A	2	2.96	23.8	inactive
EIF5A	3	1.14	11	inactive
RPS26P50	1	5.82	43.9	active
RPS26P50	2	2.6	21.2	inactive
RPS26P50	3	1.06	10.5	inactive
SMIM8	1	-0.269	1.07	inactive
SMIM8	2	2.5	20.6	inactive
SMIM8	3	-1.14	-5.08	inactive
PIK3IP1	1	-0.228	1.36	inactive
PIK3IP1	2	3.02	24.2	inactive
PIK3IP1	3	-0.344	0.544	inactive
TAS2R50	1	-0.339	0.585	inactive
TAS2R50	2	0.337	5.34	inactive
TAS2R50	3	3.17	25.3	inactive
DNAAF11	1	-0.526	-0.733	inactive
DNAAF11	2	-0.741	-2.25	inactive
DNAAF11	3	1.09	10.6	inactive
DHX37	1	6.73	50.3	active
DHX37	2	4.33	33.5	inactive
DHX37	3	0.649	7.54	inactive
CDC42EP3	1	1.54	13.8	inactive
CDC42EP3	2	2.13	18	inactive
CDC42EP3	3	-0.0142	2.87	inactive
HPS5	1	1.57	14	inactive
HPS5	2	-0.466	-0.311	inactive
HPS5	3	0.591	7.13	inactive
PLA2G6	1	0.97	9.79	inactive
PLA2G6	2	-0.0792	2.41	inactive
PLA2G6	3	0.432	6.01	inactive
LRSAM1	1	-0.646	-1.58	inactive
LRSAM1	2	0.863	9.04	inactive
LRSAM1	3	-0.159	1.85	inactive
EEF1B2P3	1	0.16	4.09	inactive
EEF1B2P3	2	-0.778	-2.51	inactive
EEF1B2P3	3	-0.303	0.833	inactive
ASCC1	1	-0.814	-2.76	inactive
ASCC1	2	-0.806	-2.7	inactive
ASCC1	3	0.351	5.44	inactive
GPR31	1	1.36	12.5	inactive
GPR31	2	0.314	5.18	inactive
GPR31	3	3.99	31	inactive
SETMAR	1	0.734	8.13	inactive
SETMAR	2	5.12	39	active
SETMAR	3	-0.165	1.81	inactive
REL	1	2.52	20.7	inactive
REL	2	0.124	3.84	inactive
REL	3	-0.699	-1.95	inactive
PDLIM5	1	1.37	12.6	inactive
PDLIM5	2	-0.419	0.0191	inactive
PDLIM5	3	0.169	4.16	inactive
TREML3P	1	0.322	5.23	inactive
TREML3P	2	-0.412	0.0682	inactive
TREML3P	3	-1.12	-4.93	inactive
SLFN14	1	-0.452	-0.212	inactive
SLFN14	2	-0.289	0.938	inactive
SLFN14	3	-0.0664	2.5	inactive
ZNF266	1	0.197	4.36	inactive
ZNF266	2	-0.486	-0.455	inactive
ZNF266	3	1.79	15.5	inactive
FLJ16734 (retired record)	1	0.991	9.94	inactive
FLJ16734 (retired record)	2	1.44	13.1	inactive
FLJ16734 (retired record)	3	-0.137	2	inactive
ARHGAP33	1	1.21	11.5	inactive
ARHGAP33	2	0.133	3.9	inactive
ARHGAP33	3	0.401	5.79	inactive
MBNL1	1	-1.85	-10	inactive
MBNL1	2	-0.834	-2.9	inactive
MBNL1	3	-0.253	1.18	inactive
ITGAX	1	3.08	24.6	inactive
ITGAX	2	2.29	19.1	inactive
ITGAX	3	-0.592	-1.2	inactive
PDE4B	1	-0.987	-3.98	inactive
PDE4B	2	0.766	8.35	inactive
PDE4B	3	-0.925	-3.54	inactive
RASSF9	1	-0.805	-2.7	inactive
RASSF9	2	-0.987	-3.97	inactive
RASSF9	3	0.863	9.04	inactive
UBC	1	1.14	11	inactive
UBC	2	1.17	11.2	inactive
UBC	3	6.47	48.5	active
DLEC1	1	0.396	5.76	inactive
DLEC1	2	-0.574	-1.07	inactive
DLEC1	3	-0.296	0.885	inactive

13 of these entries, reformatted.
| gene | siRNA no. | G2 robust z-score | G2 cells, % of GMNN control | Call |
| --- | --- | --- | --- | --- |
| SLFN14 | 1 | -0.452 | -0.212 | inactive |
| SLFN14 | 2 | -0.289 | 0.938 | inactive |
| SLFN14 | 3 | -0.0664 | 2.5 | inactive |
| ZNF266 | 1 | 0.197 | 4.36 | inactive |
| ZNF266 | 2 | -0.486 | -0.455 | inactive |
| ZNF266 | 3 | 1.79 | 15.5 | inactive |
| FLJ16734 (retired record) | 1 | 0.991 | 9.94 | inactive |
| FLJ16734 (retired record) | 2 | 1.44 | 13.1 | inactive |
| FLJ16734 (retired record) | 3 | -0.137 | 2 | inactive |
| ARHGAP33 | 1 | 1.21 | 11.5 | inactive |
| ARHGAP33 | 2 | 0.133 | 3.9 | inactive |
| ARHGAP33 | 3 | 0.401 | 5.79 | inactive |
| MBNL1 | 1 | -1.85 | -10 | inactive |
